Reference: article PMC12268982
No constants are given. Whether binding was seen depends on the method and setting. In cells and extracts the contact can be indirect. Binding can be weak; no strength is given. Where a sequence is shown, tags or fusion partners need not be part of it.

B1: APPL1 (Adaptor Protein containing Pleckstrin homology domain, Phosphotyrosine binding domain, and Leucine zipper motif) (protein, UniProt Q8K3H0 1-707)
chain: MPGIDKLPIEETLEDSPQTRSLLGVFEEDATAISNYMNQLYQAMHRIYDAQNELSAATHLTSKLLKEYEKQRFPLGGDDEVMSSTLQQFSKVIDELSSCHAVLSTQLADAMMFPISQFKERDLKEILTLKEVFQIASNDHDAAINRYSRLSKKRENDKVKYEVTEDVYTSRKKQHQTMMHYFCALNTLQYKKKIALLEPLLGYMQAQISFFKMGSENLNGQLEEFLANIGTSVQNVRREMDGDVETMQQTIEDLEVASDPLYLPDPDPTKFPINRNLTRKAGYLNARNKTGLVSSTWDRQFYFTQGGNLMSQARGDVAGGLAMDIDNCSVMAVDCEDRRYCFQITSFDGKKSSILQAESKKDHEEWICTINNISKQIYLSENPEETAARVNQSALEAVTPSPSFQQRHESLRPGGQSRPPTARTSSSGSLGSESTNLAALSLDSLVAPDTPIQFDIISPVCEDQPGQAKAFGQGGRRTNPFGESGGSTKSETEDSILHQLFIVRFLGSMEVKSDDHPDVVYETMRQILAARAIHNIFRMTESHLLVTCDCLKLIDPQTQVTRLTFPLPCVVLYATHQENKRLFGFVLRTSGGRSESNLSSVCYIFESNNEGEKICDSVGLAKQIALHAELDRRASEKQKEIERVKEKQQKELSKQKQIEKDLEEQSRLIAASSRPNQAGSEGQLVLSSSQSEESDLGEEGKKRESEA
B2: human APPL1, Flag-tagged, Thy1-APPL1 transgene (protein, UniProt Q9UKG1 1-709)
chain: MPGIDKLPIEETLEDSPQTRSLLGVFEEDATAISNYMNQLYQAMHRIYDAQNELSAATHLTSKLLKEYEKQRFPLGGDDEVMSSTLQQFSKVIDELSSCHAVLSTQLADAMMFPITQFKERDLKEILTLKEVFQIASNDHDAAINRYSRLSKKRENDKVKYEVTEDVYTSRKKQHQTMMHYFCALNTLQYKKKIALLEPLLGYMQAQISFFKMGSENLNEQLEEFLANIGTSVQNVRREMDSDIETMQQTIEDLEVASDPLYVPDPDPTKFPVNRNLTRKAGYLNARNKTGLVSSTWDRQFYFTQGGNLMSQARGDVAGGLAMDIDNCSVMAVDCEDRRYCFQITSFDGKKSSILQAESKKDHEEWICTINNISKQIYLSENPEETAARVNQSALEAVTPSPSFQQRHESLRPAAGQSRPPTARTSSSGSLGSESTNLAALSLDSLVAPDTPIQFDIISPVCEDQPGQAKAFGQGGRRTNPFGESGGSTKSETEDSILHQLFIVRFLGSMEVKSDDHPDVVYETMRQILAARAIHNIFRMTESHLLVTCDCLKLIDPQTQVTRLTFPLPCVVLYATHQENKRLFGFVLRTSSGRSESNLSSVCYIFESNNEGEKICDSVGLAKQIALHAELDRRASEKQKEIERVKEKQQKELNKQKQIEKDLEEQSRLIAASSRPNQASSEGQFVVLSSSQSEESDLGEGGKKRESEA

Molecular target: rab5 (mouse (endogenous in hippocampal synaptosomes))
Experiment: pull-down; GTP-agarose beads (Sigma G9768) with 200 ug of hippocampal synaptosome lysate from non-Tg or Thy1-APPL1 mice, overnight at 4°C; 50 mM Tris-HCl pH 7.5, 250 mM NaCl, 5 mM Mg acetate, 0.5% Triton X-100; three washes; blots with anti-APPL1 and anti-rab5

| Binder | binding |
| --- | --- |
| B1 | binds |
| B2 | binds |
